Some peptides are written in HELM: one residue between dots, names in brackets for other building blocks, links after the first $.
Experiment: general procedure: Fmoc solid-phase peptide synthesis; Fmoc Ser(t-Bu) TentaGel S PHB 0.25 mmol/g; HATU/HOAt (dye conjugation)
Conditions: conjugation step, RP-HPLC

For “PEPTIDE1{[IRDye800CW].E.E.[O2O].[O2O].D.[Cha].F.[dS].[dR].Y.L.W.S}$$$$V2.0”, the “final HPLC purity” value was 98%.
